No constants are given. Whether binding was seen depends on the method and setting. In cells and extracts the contact can be indirect. Here binding means that the protein was enriched with, or labelled near, the bait; the list need not be complete.
These substances were tested against APEX2-WDR47 (mouse) (UniProt Q8CGF6) (assay: proximity labelling; APEX2-WDR47 expressed in mEPCs by adenovirus; 500 uM biotin-phenol at 37 C for 30 min, 1 mM H2O2 for 1 min; lysis in RIPA buffer, biotinylated proteins on streptavidin-conjugated agarose beads, shotgun mass spectrometry; cutoff >= twofold peptide ratio against the mock-treated control).

Chains of the proteins cited; added tags and fusions are not shown.
UniProt Q8CGF6: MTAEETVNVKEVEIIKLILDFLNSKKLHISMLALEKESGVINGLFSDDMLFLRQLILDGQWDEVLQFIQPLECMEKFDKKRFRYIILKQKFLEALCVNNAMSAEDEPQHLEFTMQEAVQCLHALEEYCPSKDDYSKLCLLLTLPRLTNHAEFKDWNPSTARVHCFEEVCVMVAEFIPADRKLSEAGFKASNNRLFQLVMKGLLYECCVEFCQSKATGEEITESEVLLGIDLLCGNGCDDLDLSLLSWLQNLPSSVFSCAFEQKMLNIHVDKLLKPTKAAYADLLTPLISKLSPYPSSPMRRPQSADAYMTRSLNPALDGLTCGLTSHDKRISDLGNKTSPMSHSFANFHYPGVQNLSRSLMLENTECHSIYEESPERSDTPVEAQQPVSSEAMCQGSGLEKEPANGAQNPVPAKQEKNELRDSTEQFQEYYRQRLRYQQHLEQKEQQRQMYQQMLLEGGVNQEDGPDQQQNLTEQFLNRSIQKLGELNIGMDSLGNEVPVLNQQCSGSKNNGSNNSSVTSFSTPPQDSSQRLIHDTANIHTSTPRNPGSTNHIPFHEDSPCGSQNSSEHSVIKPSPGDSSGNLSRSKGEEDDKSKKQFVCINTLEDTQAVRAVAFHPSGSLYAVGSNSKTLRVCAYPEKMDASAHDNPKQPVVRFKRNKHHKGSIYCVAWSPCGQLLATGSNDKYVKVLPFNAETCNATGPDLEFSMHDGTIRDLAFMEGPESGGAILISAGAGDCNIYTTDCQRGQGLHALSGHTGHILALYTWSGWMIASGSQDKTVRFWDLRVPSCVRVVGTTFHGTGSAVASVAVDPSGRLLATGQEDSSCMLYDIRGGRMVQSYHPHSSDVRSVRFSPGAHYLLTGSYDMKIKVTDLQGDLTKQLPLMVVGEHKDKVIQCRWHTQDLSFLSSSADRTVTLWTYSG
UniProt E9Q793: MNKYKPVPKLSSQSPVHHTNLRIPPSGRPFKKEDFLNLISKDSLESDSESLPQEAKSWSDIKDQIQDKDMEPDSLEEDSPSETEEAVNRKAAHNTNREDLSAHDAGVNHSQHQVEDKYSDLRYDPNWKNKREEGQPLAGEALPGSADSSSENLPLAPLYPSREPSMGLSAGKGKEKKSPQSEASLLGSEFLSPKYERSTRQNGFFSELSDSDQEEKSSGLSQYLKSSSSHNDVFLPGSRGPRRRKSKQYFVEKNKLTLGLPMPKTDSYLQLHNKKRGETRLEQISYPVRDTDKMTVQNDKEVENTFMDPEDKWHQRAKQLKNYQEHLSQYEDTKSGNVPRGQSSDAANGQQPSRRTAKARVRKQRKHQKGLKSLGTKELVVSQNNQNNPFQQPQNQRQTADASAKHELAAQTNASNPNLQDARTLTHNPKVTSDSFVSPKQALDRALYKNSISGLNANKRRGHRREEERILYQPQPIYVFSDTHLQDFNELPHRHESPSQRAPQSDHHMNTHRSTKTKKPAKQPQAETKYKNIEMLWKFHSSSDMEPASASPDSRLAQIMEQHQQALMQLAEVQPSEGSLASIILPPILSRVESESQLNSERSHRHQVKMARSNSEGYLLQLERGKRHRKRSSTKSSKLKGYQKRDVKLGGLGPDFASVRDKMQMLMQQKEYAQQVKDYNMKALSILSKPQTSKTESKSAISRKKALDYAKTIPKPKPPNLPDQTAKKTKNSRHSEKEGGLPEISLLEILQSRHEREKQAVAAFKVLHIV
UniProt Q8R1Z4: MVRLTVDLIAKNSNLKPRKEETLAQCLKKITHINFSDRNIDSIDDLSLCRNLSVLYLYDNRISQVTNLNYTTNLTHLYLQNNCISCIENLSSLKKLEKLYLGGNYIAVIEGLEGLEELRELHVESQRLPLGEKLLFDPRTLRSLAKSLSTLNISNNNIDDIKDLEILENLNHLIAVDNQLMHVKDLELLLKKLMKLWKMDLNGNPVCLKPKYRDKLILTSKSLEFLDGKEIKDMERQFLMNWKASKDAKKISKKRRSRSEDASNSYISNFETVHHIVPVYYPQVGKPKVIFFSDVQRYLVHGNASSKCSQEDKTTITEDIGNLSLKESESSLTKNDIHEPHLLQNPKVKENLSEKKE
UniProt Q3V0B4: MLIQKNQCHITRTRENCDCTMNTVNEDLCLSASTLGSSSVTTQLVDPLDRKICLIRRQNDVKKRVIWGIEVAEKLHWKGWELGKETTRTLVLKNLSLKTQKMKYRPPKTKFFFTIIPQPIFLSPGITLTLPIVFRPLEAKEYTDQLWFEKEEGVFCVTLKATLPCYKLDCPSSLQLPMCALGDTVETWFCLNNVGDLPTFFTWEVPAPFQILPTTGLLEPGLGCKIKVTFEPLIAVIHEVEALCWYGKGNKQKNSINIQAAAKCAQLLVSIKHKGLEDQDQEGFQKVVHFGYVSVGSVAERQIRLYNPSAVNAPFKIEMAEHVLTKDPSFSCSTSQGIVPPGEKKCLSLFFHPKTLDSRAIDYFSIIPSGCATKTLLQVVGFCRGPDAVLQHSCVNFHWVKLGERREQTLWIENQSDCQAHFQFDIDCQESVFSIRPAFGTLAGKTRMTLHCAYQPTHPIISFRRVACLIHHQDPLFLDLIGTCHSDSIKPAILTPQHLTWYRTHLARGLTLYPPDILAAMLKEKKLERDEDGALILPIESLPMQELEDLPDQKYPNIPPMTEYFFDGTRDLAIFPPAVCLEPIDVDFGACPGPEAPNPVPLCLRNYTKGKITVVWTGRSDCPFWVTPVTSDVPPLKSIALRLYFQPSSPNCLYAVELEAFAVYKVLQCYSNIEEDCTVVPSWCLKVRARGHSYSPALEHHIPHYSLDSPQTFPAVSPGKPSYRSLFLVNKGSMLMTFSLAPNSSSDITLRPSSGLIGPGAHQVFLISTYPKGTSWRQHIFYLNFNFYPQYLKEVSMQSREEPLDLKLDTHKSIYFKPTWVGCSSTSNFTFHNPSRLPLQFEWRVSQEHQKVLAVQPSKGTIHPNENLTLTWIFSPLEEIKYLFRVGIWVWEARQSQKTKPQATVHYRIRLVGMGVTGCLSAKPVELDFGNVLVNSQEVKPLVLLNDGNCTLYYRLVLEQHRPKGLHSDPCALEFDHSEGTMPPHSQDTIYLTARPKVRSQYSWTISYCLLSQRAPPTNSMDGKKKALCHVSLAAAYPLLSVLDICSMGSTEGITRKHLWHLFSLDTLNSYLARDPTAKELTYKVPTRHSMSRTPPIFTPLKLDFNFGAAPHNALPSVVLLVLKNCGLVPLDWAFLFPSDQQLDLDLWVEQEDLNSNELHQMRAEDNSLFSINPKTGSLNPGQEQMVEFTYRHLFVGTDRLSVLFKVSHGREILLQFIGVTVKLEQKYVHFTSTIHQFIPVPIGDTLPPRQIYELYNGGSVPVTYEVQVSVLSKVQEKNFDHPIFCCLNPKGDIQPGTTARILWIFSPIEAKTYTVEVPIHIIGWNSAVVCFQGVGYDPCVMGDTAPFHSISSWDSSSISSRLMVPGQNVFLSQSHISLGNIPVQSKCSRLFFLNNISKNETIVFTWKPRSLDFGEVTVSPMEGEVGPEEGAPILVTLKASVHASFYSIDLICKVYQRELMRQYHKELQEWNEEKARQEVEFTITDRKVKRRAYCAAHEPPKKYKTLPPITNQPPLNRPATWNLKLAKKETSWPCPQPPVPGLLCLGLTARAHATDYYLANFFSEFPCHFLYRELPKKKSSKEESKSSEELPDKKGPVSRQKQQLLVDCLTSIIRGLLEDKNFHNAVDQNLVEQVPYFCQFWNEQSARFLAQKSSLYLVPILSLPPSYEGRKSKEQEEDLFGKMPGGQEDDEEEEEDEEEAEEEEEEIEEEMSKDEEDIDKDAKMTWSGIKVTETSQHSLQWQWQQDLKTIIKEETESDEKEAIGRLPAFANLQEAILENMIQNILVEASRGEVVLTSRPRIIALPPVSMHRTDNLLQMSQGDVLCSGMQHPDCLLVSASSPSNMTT
UniProt Q5S003: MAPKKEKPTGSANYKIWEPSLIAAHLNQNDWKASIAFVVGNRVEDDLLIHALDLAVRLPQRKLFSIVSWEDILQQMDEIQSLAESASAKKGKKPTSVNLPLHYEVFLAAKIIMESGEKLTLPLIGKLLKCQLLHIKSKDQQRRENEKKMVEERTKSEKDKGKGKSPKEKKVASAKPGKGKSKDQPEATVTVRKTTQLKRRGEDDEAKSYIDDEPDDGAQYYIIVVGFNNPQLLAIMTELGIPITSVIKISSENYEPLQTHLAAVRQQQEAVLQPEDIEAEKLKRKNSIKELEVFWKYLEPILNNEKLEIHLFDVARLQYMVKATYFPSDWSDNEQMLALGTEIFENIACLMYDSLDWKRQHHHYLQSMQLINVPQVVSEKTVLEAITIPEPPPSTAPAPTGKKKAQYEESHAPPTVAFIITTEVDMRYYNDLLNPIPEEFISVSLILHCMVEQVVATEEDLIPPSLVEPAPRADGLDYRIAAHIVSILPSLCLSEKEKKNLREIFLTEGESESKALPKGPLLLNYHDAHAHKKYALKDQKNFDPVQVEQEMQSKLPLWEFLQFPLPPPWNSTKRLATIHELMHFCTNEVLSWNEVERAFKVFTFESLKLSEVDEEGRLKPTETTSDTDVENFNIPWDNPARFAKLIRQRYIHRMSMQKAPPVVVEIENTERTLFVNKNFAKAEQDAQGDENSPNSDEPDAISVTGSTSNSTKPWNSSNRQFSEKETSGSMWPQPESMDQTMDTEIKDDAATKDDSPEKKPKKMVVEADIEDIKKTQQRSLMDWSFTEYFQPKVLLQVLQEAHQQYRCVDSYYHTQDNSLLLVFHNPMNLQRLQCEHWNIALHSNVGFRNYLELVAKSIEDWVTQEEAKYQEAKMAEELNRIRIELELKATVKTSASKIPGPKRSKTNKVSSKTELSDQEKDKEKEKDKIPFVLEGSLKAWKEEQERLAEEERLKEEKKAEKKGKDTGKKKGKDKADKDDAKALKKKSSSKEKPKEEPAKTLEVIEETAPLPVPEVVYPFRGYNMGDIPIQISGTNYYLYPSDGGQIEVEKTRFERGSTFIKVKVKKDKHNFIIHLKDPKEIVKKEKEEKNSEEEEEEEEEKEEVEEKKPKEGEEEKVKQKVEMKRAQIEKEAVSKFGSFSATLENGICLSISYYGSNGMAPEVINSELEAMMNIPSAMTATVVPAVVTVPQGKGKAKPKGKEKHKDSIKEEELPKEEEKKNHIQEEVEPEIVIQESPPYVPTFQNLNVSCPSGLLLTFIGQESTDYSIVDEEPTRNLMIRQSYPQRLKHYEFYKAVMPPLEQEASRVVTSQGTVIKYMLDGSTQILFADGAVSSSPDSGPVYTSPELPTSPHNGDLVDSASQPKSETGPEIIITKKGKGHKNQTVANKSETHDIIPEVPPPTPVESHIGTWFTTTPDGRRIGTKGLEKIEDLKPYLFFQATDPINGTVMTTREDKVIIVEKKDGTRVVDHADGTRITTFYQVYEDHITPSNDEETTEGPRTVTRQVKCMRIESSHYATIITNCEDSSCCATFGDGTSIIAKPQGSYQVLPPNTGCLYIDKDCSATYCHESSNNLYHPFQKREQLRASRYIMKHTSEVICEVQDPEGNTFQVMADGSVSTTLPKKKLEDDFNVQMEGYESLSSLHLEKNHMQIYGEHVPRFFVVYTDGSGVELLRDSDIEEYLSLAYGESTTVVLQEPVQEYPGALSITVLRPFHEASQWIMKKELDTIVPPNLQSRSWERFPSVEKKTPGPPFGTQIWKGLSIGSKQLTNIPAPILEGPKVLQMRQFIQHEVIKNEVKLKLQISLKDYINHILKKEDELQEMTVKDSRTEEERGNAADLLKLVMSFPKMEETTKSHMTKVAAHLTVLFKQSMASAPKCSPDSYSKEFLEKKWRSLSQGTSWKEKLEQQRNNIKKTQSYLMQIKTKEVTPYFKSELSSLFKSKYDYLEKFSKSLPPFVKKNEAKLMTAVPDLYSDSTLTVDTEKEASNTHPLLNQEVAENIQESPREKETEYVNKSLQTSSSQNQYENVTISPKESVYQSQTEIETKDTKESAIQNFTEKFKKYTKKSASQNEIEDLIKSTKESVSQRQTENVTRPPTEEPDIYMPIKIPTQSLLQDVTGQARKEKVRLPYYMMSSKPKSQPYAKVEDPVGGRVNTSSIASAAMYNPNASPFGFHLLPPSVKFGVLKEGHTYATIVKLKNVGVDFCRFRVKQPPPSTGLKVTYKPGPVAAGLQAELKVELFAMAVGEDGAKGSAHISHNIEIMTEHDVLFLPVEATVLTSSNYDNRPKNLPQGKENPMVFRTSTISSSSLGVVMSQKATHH

binding	Substance
binds	CEP290 (from UniProt Q6A078 1-2472)
binds	DNAH3 (from UniProt Q8BW94 1-4083)
binds	EFCAB6 (from UniProt Q6P1E8 1-1516)
binds	FHAD1 (from UniProt A6PWD2 1-1420)
binds	JHY (endogenous) (from UniProt E9Q793 1-770)
binds	LRRC67 (from UniProt Q8R1Z4 1-357)

Continued, substance first:

Substance	binding
ADGB (from UniProt G3UZ78 1-1657)	binds
CCDC108 (from UniProt Q3V0B4 1-1847)	binds
HYDIN (from UniProt Q80W93 1-5154)	binds
PCDP1 (from UniProt A9Q751 1-836)	binds
RPGRIP1L (from UniProt Q8CG73 1-1264)	binds
SPAG17 (from UniProt Q5S003 1-2320)	binds
SPEF2 (from UniProt Q8C9J3 1-1724)	binds

Source: PMC12979858
